From US4395969A (priority 1981, dated 1983)
The name of at least one read-out is uncertain.

Test system: chinook salmon
Experiment: Deactivation with potassium permanganate, mortality of chinook salmon
Assay type: in vivo, O. tschawytscha
Conditions: 4 mg/l, river water, 15 C

## CCOP(=O)(OC=C(Cl)Cl)OCC [2,2-dichlorovinyl diethyl phosphate]
KMnO4 0.00 mg/l, 12 h
  mortality: 0
KMnO4 0.00 mg/l, 24 h
  mortality: 0
KMnO4 0.00 mg/l, 48 h
  mortality: 0
KMnO4 0.00 mg/l, 96 h
  mortality: 100
KMnO4 0.84 mg/l (0.5 eq weight), 12 h
  mortality: 0
KMnO4 0.84 mg/l (0.5 eq weight), 24 h
  mortality: 0
KMnO4 0.84 mg/l (0.5 eq weight), 48 h
  mortality: 0
KMnO4 0.84 mg/l (0.5 eq weight), 96 h
  mortality: 100
KMnO4 1.69 mg/l (1.0 eq weight), 12 h
  mortality: 0
KMnO4 1.69 mg/l (1.0 eq weight), 24 h
  mortality: 0
KMnO4 1.69 mg/l (1.0 eq weight), 48 h
  mortality: 0
KMnO4 1.69 mg/l (1.0 eq weight), 96 h
  mortality: 67
KMnO4 1.69 mg/l (1.0 eq weight), 192 h
  mortality: 93
KMnO4 3.38 mg/l (2.0 eq weight), 12 h
  mortality: 13
KMnO4 3.38 mg/l (2.0 eq weight), 24 h
  mortality: 13
KMnO4 3.38 mg/l (2.0 eq weight), 48 h
  mortality: 13
KMnO4 3.38 mg/l (2.0 eq weight), 96 h
  mortality: 13
KMnO4 3.38 mg/l (2.0 eq weight), 192 h
  mortality: 40
KMnO4 6.76 mg/l (4.0 eq weight), 12 h
  mortality: 0
KMnO4 6.76 mg/l (4.0 eq weight), 24 h
  mortality: 13
KMnO4 6.76 mg/l (4.0 eq weight), 48 h
  mortality: 13
KMnO4 6.76 mg/l (4.0 eq weight), 96 h
  mortality: 13
KMnO4 6.76 mg/l (4.0 eq weight), 192 h
  mortality: 13
